Record: PubChem BioAssay AID1259425 (University of Nebraska Medical Center, 2018)
The whole screen tested about 14,000 reagents; shown is a random part of them. A reagent listed more than once was tested more than once; the source does not tell the runs apart. Not given: the time to read-out.

Screen: 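Seek colon cancer weak points whose silencing resembles KSR1 loss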 (primary screen)
System: HCT116 human colon cancer cells
Reagents: siRNA pool against human genes, 50 nM siRNA
Measured: 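After 50 nM siRNA pool, branched-DNA assay measures six marker transcripts per well, minus blank, normalised to the geometric mean of two housekeeping transcripts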
Scale: BNIP3L mRNA: higher = more BNIP3L transcript after knockdown; NDRG1 mRNA: higher = more NDRG1 transcript after knockdown; BNIP3 mRNA: higher = more BNIP3 transcript after knockdown; ALDOC mRNA: higher = more ALDOC transcript after knockdown; ACSL5 mRNA: higher = more ACSL5 transcript after knockdown

The opening 2 entries, to show the layout:
no.	gene knocked down	BNIP3L mRNA, set 1	NDRG1 mRNA, set 1	BNIP3 mRNA, set 1	ALDOC mRNA, set 1	ACSL5 mRNA, set 1
1	KIFC2	0.279	0.221	0.674	0.0459	0.62
2	CREB1	0.0482	0.0307	0.14	0.00142	0.0633

The listing, from the first entry:
no.	gene knocked down	BNIP3L mRNA, set 1	NDRG1 mRNA, set 1	BNIP3 mRNA, set 1	ALDOC mRNA, set 1	ACSL5 mRNA, set 1
1	KIFC2	0.279	0.221	0.674	0.0459	0.62
2	CREB1	0.0482	0.0307	0.14	0.00142	0.0633
3	KLK6	0.0903	0.886	0.395	0.028	0.498
4	TERF2	0.106	0.101	0.342	0.0173	0.258
5	TMEM141	0.0879	0.193	0.355	0.0894	0.191
6	NAPSA	0.135	0.139	0.289	0.0222	0.0993
7	ELL	0.0864	0.337	0.186	0.0605	0.158
8	PGGHG	0.155	0.452	0.304	0.0132	0.19
9	ECHS1	0.149	0.163	0.348	0.00139	0.156
10	CCM2	0.0757	0.193	0.406	0.0433	0.323
11	SULF1	0.119	0.104	0.232	0.0355	0.0516
12	SLC22A11	0.095	0.158	0.685	0.0255	0.158
13	SLC7A2	0.121	0.229	0.219	0.0185	0.119
14	C19orf33	0.0879	0.139	0.305	0.0158	0.129
15	PGAP2	0.0846	0.314	0.176	0.0172	0.177
16	DNAJC9	0.204	0.199	0.353	0.0195	0.146
17	RABL2A	0.136	0.0904	0.349	0.022	0.201
18	CRELD2	0.117	0.216	0.253	0.0371	0.292
19	ALYREF	0.135	0.393	0.406	0.0247	0.151
20	KIRREL3	0.0322	0.384	0.235	0.0565	0.172
21	CPAP	0.21	0.68	0.457	0.0384	0.282
22	LAS1L	0.204	0.494	0.327	0.0581	0.392
23	IBTK	0.111	0.175	0.252	0.0326	0.121
24	IBTK	0.0562	0.0861	0.369	0.0168	0.257
25	NPR1	0.185	0.307	0.296	0.0782	0.215
26	NPR1	0.11	0.0952	0.304	0.0103	0.25
27	MARCHF1	0.0791	0.105	0.219	0.0158	0.0894
28	HSPA6	0.158	0.0355	0.494	0.0209	0.108
29	RPS3	0.0517	0.0736	0.319	0.0125	0.103
30	NAA60	0.207	0.648	0.342	0.119	0.232
31	TMEM187	0.0718	0.393	0.329	0.0789	0.21
32	C19orf12	0.207	0.594	0.324	0.0922	0.358
33	GLTP	0.0509	0.0861	0.339	0.0037	0.151
34	KRT84	0.095	0.0749	0.201	0.0271	0.114
35	UBP1	0.0955	0.297	0.346	0.103	0.202
36	AKR1B1	0.0463	0.119	0.39	0.0139	0.0929
37	TMBIM6	0.154	0.251	0.308	0.0494	0.131
38	RNASE1	0.082	0.368	0.325	0.0265	0.179
39	MASTL	0.104	0.156	0.372	0.00551	0.217
40	DNAJC8	0.113	0.367	0.382	0.0574	0.295
41	KRT10	0.0909	0.209	0.352	0.0407	0.269
42	ITGB8	0.0964	0.228	0.312	0.022	0.204
43	MGST3	0.137	0.201	0.538	0.0562	0.197
44	SYNC	0.0813	0.38	0.149	0.0614	0.315
45	GAD2	0.0891	0.665	0.291	0.016	0.344
46	LRPAP1	0.129	0.111	0.332	0.0411	0.121
47	TNFSF14	0.114	0.199	0.213	0.035	0.0638
48	CD300C	0.0717	0.152	0.237	0.0182	0.122
49	DYNC1H1	0.0712	0.203	0.363	0.0406	0.123
50	GEM	0.195	0.153	0.391	0.0257	0.354
